Drawing on paper PMC6199259, “Structural and functional insights into the interaction and targeting hub TMD0 of the polypeptide transporter TAPL” (Scientific Reports, 2018), this text covers binding for 3 molecules.

The target of assay [1] is T1, TMD0-myc (N-terminal transmembrane domain TMD0 of human TAPL, wild type) (human) (UniProt Q9NP78).
T1 sequence: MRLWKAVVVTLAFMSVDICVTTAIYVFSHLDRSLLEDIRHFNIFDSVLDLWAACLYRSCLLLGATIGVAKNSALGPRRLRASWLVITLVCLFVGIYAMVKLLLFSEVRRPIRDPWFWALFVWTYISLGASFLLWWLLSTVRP
Kind of assay: co-IP; HEK 293 T cells transiently co-transfected; solubilised with 1% digitonin; immunoprecipitation with myc-tag specific antibody on Dynabeads, isotype control as mock; 20 mM Tris, 150 mM NaCl, 5 mM MgCl2, pH 7.4, 4 °C; immunoblot.

Assay [2] has as its target T1, TMD0-myc (N-terminal transmembrane domain TMD0 of human TAPL, wild type) (human). Kind of assay: co-IP; HEK 293 T cells transiently transfected with Flag- and myc-tagged copies of TMD0; solubilised with 1% digitonin; immunoprecipitation with Flag-tag specific antibody, isotype control as mock; immunoblot.

No constants are given. Whether binding was seen depends on the method and setting. Binding seen in cells or lysates may run through a third protein. Some entries that bind do so weakly or less than the wild type. Tags and fused reporters may be left off the sequences shown.

B1: coreTAPL (MG143–A766) (domain or fragment, UniProt Q9NP78 143-766)
chain: MGTQALEPGAATEAEGFPGSGRPPPEQASGATLQKLLSYTKPDVAFLVAASFFLIVAALGETFLPYYTGRAIDGIVIQKSMDQFSTAVVIVCLLAIGSSFAAGIRGGIFTLIFARLNIRLRNCLFRSLVSQETSFFDENRTGDLISRLTSDTTMVSDLVSQNINVFLRNTVKVTGVVVFMFSLSWQLSLVTFMGFPIIMMVSNIYGKYYKRLSKEVQNALARASNTAEETISAMKTVRSFANEEEEAEVYLRKLQQVYKLNRKEAAAYMYYVWGSGLTLLVVQVSILYYGGHLVISGQMTSGNLIAFIIYEFVLGDCMESVGSVYSGLMQGVGAAEKVFEFIDRQPTMVHDGSLAPDHLEGRVDFENVTFTYRTRPHTQVLQNVSFSLSPGKVTALVGPSGSGKSSCVNILENFYPLEGGRVLLDGKPISAYDHKYLHRVISLVSQEPVLFARSITDNISYGLPTVPFEMVVEAAQKANAHGFIMELQDGYSTETGEKGAQLSGGQKQRVAMARALVRNPPVLILDEATSALDAESEYLIQQAIHGNLQKHTVLIIAHRLSTVEHAHLIVVLDKGRVVQQGTHQQLLAQGGLYAKLVQRQMLGLQPAADFTAGHNEPVANGSHKA
B1: in assay [1], the binding result is reported as “binds”.

B2: TMD0-myc (N-terminal transmembrane domain TMD0 of human TAPL, wild type) (domain or fragment, UniProt Q9NP78 1-142)
chain: MRLWKAVVVTLAFMSVDICVTTAIYVFSHLDRSLLEDIRHFNIFDSVLDLWAACLYRSCLLLGATIGVAKNSALGPRRLRASWLVITLVCLFVGIYAMVKLLLFSEVRRPIRDPWFWALFVWTYISLGASFLLWWLLSTVRP
On to B2, for which the binding result in assay [2] is reported as “binds”.

B3: TAPL (M1–A766), full length (protein, UniProt Q9NP78 1-766)
chain: MRLWKAVVVTLAFMSVDICVTTAIYVFSHLDRSLLEDIRHFNIFDSVLDLWAACLYRSCLLLGATIGVAKNSALGPRRLRASWLVITLVCLFVGIYAMVKLLLFSEVRRPIRDPWFWALFVWTYISLGASFLLWWLLSTVRPGTQALEPGAATEAEGFPGSGRPPPEQASGATLQKLLSYTKPDVAFLVAASFFLIVAALGETFLPYYTGRAIDGIVIQKSMDQFSTAVVIVCLLAIGSSFAAGIRGGIFTLIFARLNIRLRNCLFRSLVSQETSFFDENRTGDLISRLTSDTTMVSDLVSQNINVFLRNTVKVTGVVVFMFSLSWQLSLVTFMGFPIIMMVSNIYGKYYKRLSKEVQNALARASNTAEETISAMKTVRSFANEEEEAEVYLRKLQQVYKLNRKEAAAYMYYVWGSGLTLLVVQVSILYYGGHLVISGQMTSGNLIAFIIYEFVLGDCMESVGSVYSGLMQGVGAAEKVFEFIDRQPTMVHDGSLAPDHLEGRVDFENVTFTYRTRPHTQVLQNVSFSLSPGKVTALVGPSGSGKSSCVNILENFYPLEGGRVLLDGKPISAYDHKYLHRVISLVSQEPVLFARSITDNISYGLPTVPFEMVVEAAQKANAHGFIMELQDGYSTETGEKGAQLSGGQKQRVAMARALVRNPPVLILDEATSALDAESEYLIQQAIHGNLQKHTVLIIAHRLSTVEHAHLIVVLDKGRVVQQGTHQQLLAQGGLYAKLVQRQMLGLQPAADFTAGHNEPVANGSHKA
On to B3, for which the binding entry in assay [1] is “no binding”.
